Results as given in patent publication EP4772527A1, “PEPTIDE HAVING SKIN WHITENING ACTIVITY AND USES THEREOF” (Caregen Co., Ltd., priority 2023, dated 2026).
At least one peptide structure holds a part that was inferred or is arguable (an end, a ring closure or a residue). No end group written: not given here.

Columns and labels:
[1] = system: B16F10 mouse melanoma cells; experiment: Analysis of melanin content; assay type: cell-based; details: 200 ng/mL α-MSH plus peptide, 72 hours, absorbance at 450 nm, FIG. 1
[2] = system: CREB (cAMP Response Element-Binding Protein); experiment: Phosphorylation level of CREB by Western blot; assay type: cell-based, mouse; details: B16F10 cells, serum-free medium, 200 ng/mL α-MSH plus peptide, 10 minutes; FIG. 2
MITF [3] = experiment: mRNA expression analysis using RT-PCR; assay type: cell-based, mouse; details: B16F10 cells, 200 ng/mL α-MSH plus peptide, 72 hours, FIG. 3
TYR [4] = experiment: mRNA expression analysis using RT-PCR; assay type: cell-based, mouse; details: B16F10 cells, 200 ng/mL α-MSH plus peptide, 72 hours, FIG. 3
TYRP1 [5] = experiment: mRNA expression analysis using RT-PCR; assay type: cell-based, mouse; details: B16F10 cells, 200 ng/mL α-MSH plus peptide, 72 hours, FIG. 3
MYO5A = experiment: mRNA expression analysis using RT-PCR; assay type: cell-based, mouse; details: B16F10 cells, 200 ng/mL α-MSH plus peptide, 72 hours, FIG. 3
MLPH = experiment: mRNA expression analysis using RT-PCR; assay type: cell-based, mouse; details: B16F10 cells, 200 ng/mL α-MSH plus peptide, 72 hours, FIG. 3
MITF [6] = experiment: Protein expression analysis using Western blot; assay type: cell-based, mouse; details: B16F10 cells, 200 ng/mL α-MSH plus peptide, 72 hours, FIG. 4
TYR [7] = experiment: Protein expression analysis using Western blot; assay type: cell-based, mouse; details: B16F10 cells, 200 ng/mL α-MSH plus peptide, 72 hours, FIG. 4
TYRP1 [8] = experiment: Protein expression analysis using Western blot; assay type: cell-based, mouse; details: B16F10 cells, 200 ng/mL α-MSH plus peptide, 72 hours, FIG. 4
Rab27a = experiment: Protein expression analysis using Western blot; assay type: cell-based, mouse; details: B16F10 cells, 200 ng/mL α-MSH plus peptide, 72 hours, FIG. 4
Melanophilin = experiment: Protein expression analysis using Western blot; assay type: cell-based, mouse; details: B16F10 cells, 200 ng/mL α-MSH plus peptide, 72 hours, FIG. 4

THTISR [peptide of Preparation Example 1, THTISR (Thr-His-Thr-Ile-Ser-Arg)]
melanin content [1]: decreased in a concentration-dependent manner
phosphorylation level of CREB [2]: decreased in a concentration-dependent manner
expression of MITF gene (MITF [3]): decreased again
expression of TYR gene (TYR [4]): decreased again
expression of TYRP1 gene (TYRP1 [5]): decreased again
expression of MYO5A gene (MYO5A): decreased again
expression of MLPH gene (MLPH): decreased again
expression of MITF protein (MITF [6]): decreased again
expression of TYR protein (TYR [7]): decreased again
expression of TYRP1 protein (TYRP1 [8]): decreased again
expression of Rab27a protein (Rab27a): decreased again
expression of Melanophilin protein (Melanophilin): decreased again
